From article PMC5105134 come the findings set out here.

Sequences of proteins named here, by UniProt entry; tags and fusion partners are left off. A change or cut given only in a name is not applied to a line headed by its entry.
UniProt P13498: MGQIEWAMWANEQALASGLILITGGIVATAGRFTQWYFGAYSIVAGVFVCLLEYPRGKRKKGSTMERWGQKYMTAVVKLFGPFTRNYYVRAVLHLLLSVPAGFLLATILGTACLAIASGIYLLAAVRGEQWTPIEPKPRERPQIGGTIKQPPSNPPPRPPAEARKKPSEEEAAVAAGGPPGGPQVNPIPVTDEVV
UniProt Q9QZC1: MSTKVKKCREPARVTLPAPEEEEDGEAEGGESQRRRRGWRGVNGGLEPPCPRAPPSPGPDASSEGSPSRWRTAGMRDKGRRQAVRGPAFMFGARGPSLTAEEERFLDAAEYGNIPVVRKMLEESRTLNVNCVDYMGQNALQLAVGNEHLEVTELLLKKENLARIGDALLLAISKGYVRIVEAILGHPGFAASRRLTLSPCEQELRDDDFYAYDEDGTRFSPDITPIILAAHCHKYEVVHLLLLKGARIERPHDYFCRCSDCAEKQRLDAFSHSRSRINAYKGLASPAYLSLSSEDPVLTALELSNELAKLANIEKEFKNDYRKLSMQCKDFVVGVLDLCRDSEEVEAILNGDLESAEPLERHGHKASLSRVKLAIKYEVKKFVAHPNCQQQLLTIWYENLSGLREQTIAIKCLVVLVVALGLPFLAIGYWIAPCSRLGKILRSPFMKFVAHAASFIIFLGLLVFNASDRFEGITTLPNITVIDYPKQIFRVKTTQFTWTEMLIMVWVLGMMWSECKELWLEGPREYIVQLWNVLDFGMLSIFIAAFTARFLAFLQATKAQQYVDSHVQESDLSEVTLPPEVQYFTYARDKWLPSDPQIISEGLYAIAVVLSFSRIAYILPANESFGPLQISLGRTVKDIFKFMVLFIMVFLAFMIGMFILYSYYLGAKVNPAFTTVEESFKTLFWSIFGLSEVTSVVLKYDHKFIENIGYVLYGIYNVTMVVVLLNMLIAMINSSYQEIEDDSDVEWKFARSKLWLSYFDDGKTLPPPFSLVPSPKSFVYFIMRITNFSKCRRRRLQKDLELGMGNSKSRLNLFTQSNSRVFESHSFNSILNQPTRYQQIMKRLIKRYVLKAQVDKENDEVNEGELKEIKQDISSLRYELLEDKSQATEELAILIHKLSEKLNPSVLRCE

The target of test [1] is T1, flag-tagged Nox2 (Flag-Nox2) (UniProt P04839).
T1 sequence: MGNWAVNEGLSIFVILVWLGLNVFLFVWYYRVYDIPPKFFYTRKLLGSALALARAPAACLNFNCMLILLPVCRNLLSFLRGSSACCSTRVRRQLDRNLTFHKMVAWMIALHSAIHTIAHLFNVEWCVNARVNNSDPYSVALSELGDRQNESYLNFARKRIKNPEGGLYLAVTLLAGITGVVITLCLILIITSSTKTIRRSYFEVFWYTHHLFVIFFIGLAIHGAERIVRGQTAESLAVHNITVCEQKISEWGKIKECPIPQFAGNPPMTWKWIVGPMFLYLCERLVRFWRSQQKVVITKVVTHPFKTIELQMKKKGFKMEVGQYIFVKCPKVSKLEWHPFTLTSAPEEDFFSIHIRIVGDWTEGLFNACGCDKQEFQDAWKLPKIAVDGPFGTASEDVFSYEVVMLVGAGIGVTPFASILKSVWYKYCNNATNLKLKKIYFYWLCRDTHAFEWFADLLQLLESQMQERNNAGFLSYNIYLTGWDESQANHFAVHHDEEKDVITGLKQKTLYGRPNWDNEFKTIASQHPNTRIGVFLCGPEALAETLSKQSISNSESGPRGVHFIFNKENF
Description: co-IP; HEK293 cells co-expressing TRPC3-GFP and Flag-Nox2; lysis in 20 mM Tris-HCl pH 7.5, 1% Triton X-100, 150 mM NaCl; immunoprecipitation with anti-flag M2 Affinity Gel, western blot. For orientation: A western blot detects proteins with antibodies after separation by electrophoresis.

Test [2] concerns the target myc-tagged p22phox (myc-p22phox) (UniProt P13498). The experiment in a line: co-IP; CHO cells (lacking endogenous p22phox) co-expressing TRPC3-GFP, Flag-Nox2 and myc-p22phox; precipitating antibody of each panel not given.
The target in test [3] is T1, flag-tagged Nox2 (Flag-Nox2). Described as above.
Test [4] shares this target. The experiment in a line: co-IP; HEK293 cells; co-immunoprecipitation of TRPC3 with Nox2 in the presence or absence of co-expressed C3-C fragment.

These are yes or no findings as the source states them, for the method shown. In cells and extracts the contact can be indirect. Binding calls can cover weak binding; strength is not graded here. For some assays here: Where a sequence is shown, tags or fusion partners need not be part of it.

“EGFP-fused TRPC3 (TRPC3-GFP) (from UniProt Q9QZC1)”: the binding entry in test [1], in test [2], in test [3] and in test [4] was “binds” each time.

For the substance “GFP-fused Nox2-interacting C-terminal fragment of TRPC3 (C3-C fragment) (domain or fragment)”, in test [4], the binding entry is on record as “binds”.
